# No constants are given. Whether binding was seen depends on the method and setting. Some results given as binding are weak or reduced against the parent protein; the word gives no strength.
# T1: B55 loopless (B55LL) (UniProt P63151)
# T1 sequence: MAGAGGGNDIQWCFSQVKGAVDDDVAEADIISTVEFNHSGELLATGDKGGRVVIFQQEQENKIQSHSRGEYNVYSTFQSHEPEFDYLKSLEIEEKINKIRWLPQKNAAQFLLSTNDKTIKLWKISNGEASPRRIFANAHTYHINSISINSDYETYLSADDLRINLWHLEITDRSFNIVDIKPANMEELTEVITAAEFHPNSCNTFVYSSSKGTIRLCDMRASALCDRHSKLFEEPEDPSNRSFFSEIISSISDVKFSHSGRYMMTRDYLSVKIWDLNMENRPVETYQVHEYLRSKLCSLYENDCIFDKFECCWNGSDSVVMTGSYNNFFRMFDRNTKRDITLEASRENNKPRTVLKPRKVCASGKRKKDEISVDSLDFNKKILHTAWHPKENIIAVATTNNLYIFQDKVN
# B1: p107_(612–687) (domain or fragment, UniProt P28749 612-687)
# chain: MPMSPLMHPRVKEVRTDSGSLRRDMQPLSPISVHERYSSPTAGSAKRRLFGEDPPKEMLMDKIITEGTKLKIAPSS
# Target: T1, B55 loopless (B55LL)
# Experiment: NMR titration; competition: complex of a 15N-labelled protein with B55LL formed first, then an excess of an unlabelled second protein added; 2D 1H,15N HSQC; both purified
binder,measurement,value
B1,binding,binds
